Reference: patent publication US20080064052A1, “Crystal of a Receptor-Ligand Complex and methods of use” (priority 2006, published 2008)
No constants are given. Whether binding was seen depends on the method and setting. Some entries that bind do so weakly or less than the wild type. For some assays here: Tags and fused reporters may be left off the sequences shown.

By UniProt entry, the sequences of proteins in these tests, tags left out. Where a name states a change or a piece, a line headed by the entry shows the natural chain unless it says otherwise.
UniProt P54760: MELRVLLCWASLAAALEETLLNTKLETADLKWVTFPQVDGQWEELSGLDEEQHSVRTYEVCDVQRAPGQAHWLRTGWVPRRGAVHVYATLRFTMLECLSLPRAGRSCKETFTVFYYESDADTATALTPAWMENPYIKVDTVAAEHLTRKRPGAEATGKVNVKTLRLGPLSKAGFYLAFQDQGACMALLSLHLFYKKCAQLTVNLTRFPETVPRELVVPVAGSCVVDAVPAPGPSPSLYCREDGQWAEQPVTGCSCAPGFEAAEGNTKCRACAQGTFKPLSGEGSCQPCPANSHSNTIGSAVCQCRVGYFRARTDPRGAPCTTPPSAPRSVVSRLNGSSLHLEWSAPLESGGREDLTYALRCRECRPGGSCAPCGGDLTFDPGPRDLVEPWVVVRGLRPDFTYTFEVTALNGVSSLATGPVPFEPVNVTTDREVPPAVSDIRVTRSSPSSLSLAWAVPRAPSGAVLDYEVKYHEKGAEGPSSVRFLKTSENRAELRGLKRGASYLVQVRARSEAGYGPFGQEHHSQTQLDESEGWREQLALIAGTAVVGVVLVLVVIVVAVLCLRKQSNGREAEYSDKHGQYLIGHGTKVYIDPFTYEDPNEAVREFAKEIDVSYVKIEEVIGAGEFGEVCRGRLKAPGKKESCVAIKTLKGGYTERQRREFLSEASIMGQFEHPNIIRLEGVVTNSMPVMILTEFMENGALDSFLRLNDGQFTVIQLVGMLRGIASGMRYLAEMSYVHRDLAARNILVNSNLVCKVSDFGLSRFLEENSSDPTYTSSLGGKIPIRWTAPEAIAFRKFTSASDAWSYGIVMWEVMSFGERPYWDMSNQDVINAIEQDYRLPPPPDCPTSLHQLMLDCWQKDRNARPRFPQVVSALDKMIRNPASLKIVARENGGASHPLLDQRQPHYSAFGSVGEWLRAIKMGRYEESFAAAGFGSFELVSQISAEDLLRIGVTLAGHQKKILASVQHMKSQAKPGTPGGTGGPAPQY

T1: human EphB4 ephrin-binding domain, EphB4 (17-196) (human) (UniProt P54760)
T1 sequence: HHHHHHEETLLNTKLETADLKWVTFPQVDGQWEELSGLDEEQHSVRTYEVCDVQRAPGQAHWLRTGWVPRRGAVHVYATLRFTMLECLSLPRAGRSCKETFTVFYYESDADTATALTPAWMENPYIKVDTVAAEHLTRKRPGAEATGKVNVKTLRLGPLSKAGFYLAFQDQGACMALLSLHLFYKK

T2: mouse EphB4 ectodomain Fc fusion protein (mouse EphB4-Fc-His, R&D Systems) (mouse) (UniProt P54761)
T2 sequence (looked up): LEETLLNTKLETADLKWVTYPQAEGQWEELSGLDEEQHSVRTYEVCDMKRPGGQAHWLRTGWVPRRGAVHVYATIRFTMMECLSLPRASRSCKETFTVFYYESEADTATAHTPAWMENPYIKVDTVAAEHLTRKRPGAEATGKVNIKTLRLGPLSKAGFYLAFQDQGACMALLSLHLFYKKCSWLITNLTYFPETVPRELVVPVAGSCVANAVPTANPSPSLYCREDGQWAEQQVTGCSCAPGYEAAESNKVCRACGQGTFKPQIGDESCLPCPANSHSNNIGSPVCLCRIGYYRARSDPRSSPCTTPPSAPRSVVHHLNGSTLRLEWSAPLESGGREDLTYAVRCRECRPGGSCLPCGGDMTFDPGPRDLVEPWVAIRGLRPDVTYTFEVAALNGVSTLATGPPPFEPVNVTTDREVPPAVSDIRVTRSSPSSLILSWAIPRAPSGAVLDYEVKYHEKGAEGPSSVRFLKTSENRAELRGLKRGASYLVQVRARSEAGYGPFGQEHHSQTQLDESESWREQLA

B1: TNYL-RAW peptide (TNYLFSPNGPIARAW) (peptide)
peptide: TNYLFSPNGPIARAW
notes: Synthetic 15-mer (Biopeptide, Inc.); Peptide positions are printed as P1 to P15; also called antagonistic peptide
B2: LFSP-RAW peptide (LFSPNGPIARAW) (peptide)
peptide: LFSPNGPIARAW
notes: TNYL-RAW without Thr-P1, Asn-P2 and Tyr-P3

How the values were obtained:
[1] = molecular target: T1, human EphB4 ephrin-binding domain, EphB4 (17-196) (human); experiment: co-crystal structure at 1.65 Å
[2] = molecular target: T2, mouse EphB4 ectodomain Fc fusion protein (mouse EphB4-Fc-His, R&D Systems) (mouse); experiment: competition ELISA: inhibition of mouse ephrin-B2 AP binding to immobilized mouse EphB4 ectodomain Fc; same ELISA; the cell is a lower limit (>10 µM), not a finding of no binding

Binder	binding [1]	binding [2]
B1	binds	–
B2	–	no binding (tested: 10 µM)
